Measurements taken from patent EP4574212A1 (Centre National de la Recherche Scientifique, priority 2023, dated 2025).
For some of these results: HELM strings list residues between dots; [ac] is acetyl, [am] amide, other brackets name non-standard units. Ends that are not written are not given here. * marks the point of attachment. Boc = CC(C)(C)OC(=O)*

Experiments:
[1] = general procedure: Fmoc solid-phase peptide synthesis; 2-chlorotrityl chloride resin loaded with Fmoc-Gly-OH (0.55 mmol/g); HATU/DIPEA; PyBop/DIPEA for cyclisation; details: for conjugation yield: conjugation step; for cyclisation yield: cyclisation step; for step yield: late stage modification step
peptide synthesis = details: for step yield: late stage modification step

RAFT-(4-(2-((11-X-1-oxoundecyl)amino)-2-oxoethyl)-N-(2-aminophenyl)benzamide)4
conjugation yield [1]: 15%

H-AAK(Boc)PGAAK(Boc)PGH
cyclisation yield [1]: 71%

RAFT-( N^1-(4-(2-amino-2-oxoethyl)phenyl)-N^8-(trityloxy)octane diamide)2
conjugation yield [1]: 59%

RAFT-(N-hydroxy-5-(1-methyl-1H-1,2,3-triazol-4-yl)pentanamide)4
step yield [1]: 33%

RAFT-(4-(2-((5-X-5-oxopentyl)amino)-2-oxoethyl)-N-(2-aminophenyl)benzamide)4
step yield (peptide synthesis): 13%

RAFT-(tert-butyl (2-(4-(2-X-2-oxoethyl)benzamido)phenyl)carbamate)2
conjugation yield [1]: 75%

RAFT-(tert-butyl(2-(4-(2-(((1-X-1H-1,2,3-triazol-4-yl)methyl)amino)-2-oxoethyl) benzamido)phenyl)carbamate)4
conjugation yield [1]: 36%

RAFT-(4-(2-X-2-oxoethyl)-N-(2-aminophenyl)benzamide)4
conjugation yield (peptide synthesis; conjugation step): 40%

RAFT-(5-(1-X-1H-1,2,3-triazol-4-yl)-N-(trityloxy)pentanamide)4
step yield [1]: 51%

RAFT-(methyl 8-(hydroxyamino)-8-oxooctanoate)4 [MuH2120]
step yield ([1]; run 1): 12%

H2N-K(N3)-A-K(N3)-P-G-K(N3)-A-K(N3)-P-G-H
cyclisation yield [1]: 60%

RAFT-(tert-butyl(2-(4-(2-((5-X-5-oxopentyl)amino)-2-oxoethyl)benzamido)phenyl) carbamate)4
conjugation yield [1]: 64%

H2N-K(Boc)-A-K(Boc)-P-G-K(Boc)-A-K(Boc)-P-G-H
cyclisation yield [1]: 40%

RAFT-(methyl 8-(hydroxyamino)-8-oxooctanoate)4 [MuH2121]
step yield ([1]; run 1): 14%

RAFT-(N-(2-aminophenyl)-4-(2-(((1-X-1H-1,2,3-triazol-4-yl)methyl)amino)-2-oxoethyl) benzamide)4
step yield (peptide synthesis): 87%

PEPTIDE1{A.A.[K_BzA].P.G.A.A.[K_BzA].P.G}$PEPTIDE1,PEPTIDE1,1:R1-10:R2$$$V2.0
step yield [1]: 42%
